In patent US20140163100A1, “Methods of Treating Multiple Sclerosis and Preserving and/or Increasing Myelin Content” (BIOGEN IDEC MA INC., priority 2011, published 2014):
Where a name gives a salt, the structure may show the parent alone. For at least one compound, name, drawing or mass did not settle the structure.

Test system: mouse MS model
Experiment: Mouse MS model, neuroprotective effects
Format: in vivo
Details: mouse MS model with features of advanced stages of chronic forms of MS
Text: Although many well characterized rodent and primate models for MS exist, only recently have the characteristic features of progressive MS been identified in select animal models.

COC(=O)/C=C/C(=O)O [MMF, monomethyl fumarate]
neuroprotective effects: reduction in demyelination and axonal damage
